Data taken from ChEMBL document CHEMBL3988442, “University of Dundee, Small-Polar-MMV Screening Library” (2021).

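Cell assay of Leishmania donovani living inside macrophages; the read-out is not stated. Compounds at 30 µM. Direction is inferred from retests: higher values go with stronger inhibition. Of about 69,000 compounds tested this way, about 1,000 (1.5%) reached 50% or more in at least one test.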

Values are the deposited “Percent Effect”, in %. The controls that fix the scale are not given in the record; negative values are as filed. The compounds are a random part of those screened. Two or more numbers in one place are separate tests of the same structure; such repeats can differ widely.

compound | percent effect
CCC(CN1CCOCC1)NC(=O)Cc1c(C)[nH]c2cc(C)cc(C)c12 (centres undefined) | 4.962
O=C(O)C(F)(F)F.O=C(O)C(F)(F)F.[H][C@@]12CNCC[C@]1([H])OC[C@H](C(=O)Nc1cccnc1)C2 | 15.54
Cl.Cl.Fc1cccc(-c2c[nH]c(C3CCCN3)n2)c1 (centres undefined) | 6.949
CC(=O)N1CC(C)CN(C(=O)c2cccnc2C)c2ccccc21 (centres undefined) | -20.46
CCn1cnnc1CCNC(=O)c1ccc(F)c(Br)c1 | 21.38
CCNc1cc2c(nn1)CCN(C(=O)CCc1c(C)noc1Cl)C2 | 14.06
Cc1cnc(-c2cccc(-c3ccn(CCCO)n3)c2)nc1N(C)C | 14.88
CN(C)c1ccc(CCCNC(=O)Nc2ccc(C#N)cc2)cc1 | 44.11
O=C1CC2(CCN(CCCF)CC2)CN1Cc1cc(F)cc(F)c1 | -8.506
O=C(Nc1cc(C(F)(F)F)c[nH]c1=O)C1CCCO1 (centres undefined) | 65.61
CNC(=O)CCc1cc(C2CCCCN2C)nc(C)n1 (centres undefined) | 20.64
Cc1ncncc1C(=O)N1CCOC(C(=O)NC2CCCC2)C1 (centres undefined) | 16.32
CC(NC(=O)CCCOc1cccc(F)c1)c1ccncc1 (centres undefined) | 27.32
CN(C)C(=O)CN1CCC2(CC1)COc1ccccc1S(=O)(=O)N(C)C2.O=C(O)C(F)(F)F | -1.256
O=C1CNc2ncnc(Nc3cnn(Cc4ccccc4)c3)c2N1 | -38.79
COc1ccc(NC(=O)c2ccccc2NCc2ncnn2C)cc1 | 35.19
CN1CCCC2(CCN(C(=O)CCn3cncn3)C2)C1=O (centres undefined) | 14.12
CC(C)c1noc(CN2CCN(C(=O)c3ccccc3F)CC2)n1 | 13.17
[H][C@@]12COC[C@H](C(=O)NC3CC3)[C@]1([H])CN(c1ncc(F)cn1)C2 | 25.1
O=C(c1ccc2cc[nH]c2c1)N1CCCN(Cc2cscn2)CC1 | 28.42
[H][C@@]12CN(C(=O)c3ccccc3C)C[C@]1([H])[C@H]2CN(C)CCc1ccccn1 | 5.698
O=C1Nc2ccccc2CNC12CCN(CC1CCCC1)CC2 | -1.284
CC(=O)N1CCC(C(=O)N2CCCC(Cc3ccccn3)C2)CC1 (centres undefined) | 18.44 & 22.36
CNC(=O)N1CCCCC1CCNS(C)(=O)=O (centres undefined) | 6.391
Cc1cccnc1CC(C)NC1Cc2ccccc2C1 (centres undefined) | 17.54
NC(=O)c1cccc(OCC(=O)N2CCCC(n3cccn3)C2)c1 (centres undefined) | 2.202
Cc1cnccc1NCCNC(=O)[C@H]1CNC[C@H](C(=O)N2CCCC2)C1 | 16.9
COc1ccc(CN2CCCC(N3CCCC3)C2)cc1Cn1cncn1 (centres undefined) | -15.66
Cc1csc(C(C)(C)NCc2ncc(-c3ccc(F)cc3)o2)n1 | 2.714
Cc1cccc(-c2noc(CN3CCc4c(ncn4C4CC4)C3)n2)c1 | 7.582
CN(Cc1cc2n(n1)CCNC2)Cc1n[nH]c2c1CCC2 | 29.15
CCc1nc(C2CCCN2CCc2cccs2)no1 (centres undefined) | -7.196
CN(C)Cc1cncc2c1CCN(CC(=O)N(C)C)C2 | 16.17
COC(=O)CN(C(=O)c1ccc(-n2ccnc2)cc1)C1CCCC1 | 14.15
Cc1ccc(NC2CCN(C(=O)COc3cccnc3)CC2)nn1 | 5.305
CCN(CC)Cc1nc2c(o1)CN(C(=O)c1ccc3ncccc3c1)C2 | -1.57
Cc1cc(C)n(CCNCc2cc(-c3ccc(Cl)cc3)c[nH]c2=O)n1 | -4.578
CC(C)Oc1ncnc2c1CCN(C(=O)c1cccn1C)CC2 | 0.06521
NC(=O)CCCNC(=O)Cc1cccc(I)c1 | 7.14
O=C(O)C(F)(F)F.[H][C@@]12CCN(C(=O)CC(C)C)CC[C@]1(C(=O)Nc1ccccc1)CCN2C | 7.27
CN1CCN(C(=O)c2cc(C#N)cs2)c2ccccc2C1 | 7.098
Cc1ncnc2c1CCN(C(=O)Cc1ccccn1)CC2.O=C(O)C(F)(F)F | 3.484
COc1coc(C(=O)Nc2nc(-c3ccncc3)cs2)cc1=O | -34.6
Cc1noc(C)c1CNC(C)c1ccc(S(=O)(=O)N(C)C)cc1 (centres undefined) | 32.72
Cc1csc2nc3n(c(=O)c12)CCN(Cc1ccccn1)CC3.Cl | 15.43 & 18.5
O=C1NCCN1C1CCCN(Cc2coc(-c3ccc(F)cc3)n2)C1 (centres undefined) | 23.94
CCn1nc(C)c(CCNC(=O)C2CCCN(C3CCCC3)C2)c1C (centres undefined) | -5.3
Cc1cccc(C2(NCCCS(C)(=O)=O)CCCC2)c1 | 13.37
CC(c1ncc(C(C)(C)C)o1)N1CCN(c2ccncc2)CC1 (centres undefined) | -17.83
Cc1cc(C[C@@H]2CCC[C@H]2NCc2ccccc2F)on1.O=C(O)CC(O)(CC(=O)O)C(=O)O | 11.36 & 4.016
CC(C)(C)n1cc(C(=O)N2CCN(Cc3ccccc3F)CC2)cn1 | 35.13
O=C(CN1CCCCCCC1=O)NCc1ccccn1 | 12.43
Cl.O=C(O)CC1CN(Cc2ccccc2)CCO1 (centres undefined) | -9.466
CN(Cc1nc(CC2CC2)no1)CC1Cc2ccccc2O1 (centres undefined) | -10.07
CC(C)N1CCC(N2CCN(C3CCC3)CC2CCO)CC1 (centres undefined) | 36.99
CCS(=O)(=O)Nc1ccn(Cc2cccc(F)c2)n1 | 3.553
CC(C)(C)C(CCO)NC(=O)Nc1ccccc1 (centres undefined) | 15.63
CNC(=O)CC1CC2(CCN(c3ncccn3)CC2)c2ccccc21.O=C(O)C(F)(F)F (centres undefined) | -26.1 & -32.3
COC(=O)C1CCN(C(=O)NCC(C)Cc2cccs2)CC1 (centres undefined) | 16.28
O=C(O)C(F)(F)F.O=C([C@H]1CCCO1)N1CCN(CCn2cccn2)c2ncccc2C1 | 24.24
CCn1nc(C)c2nnn(CC(=O)Nc3c(C)cccc3C)c(=O)c21 | -6.59
CCOC(=O)C1CCN(C(=O)CN2CCCC2c2ccccc2C)CC1 (centres undefined) | 14.19
CS(=O)(=O)c1ccc(NCCC2CCCO2)c(S(C)(=O)=O)c1 (centres undefined) | 22.1

Once more, the final 4:

compound	percent effect
O=C(O)C(F)(F)F.O=C([C@H]1CCCO1)N1CCN(CCn2cccn2)c2ncccc2C1	24.24
CCn1nc(C)c2nnn(CC(=O)Nc3c(C)cccc3C)c(=O)c21	-6.59
CCOC(=O)C1CCN(C(=O)CN2CCCC2c2ccccc2C)CC1 (centres undefined)	14.19
CS(=O)(=O)c1ccc(NCCC2CCCO2)c(S(C)(=O)=O)c1 (centres undefined)	22.1